The target of assay [1] is CLU (clusterin), endogenous in CAL-33 cells (human (endogenous in CAL-33)) (UniProt P10909). Kind of assay: co-IP; lysate of cisplatin-treated CAL-33 cells, 350 ug protein; Dynabeads Protein A with anti-CLU, anti-LC3 or anti-BAX (6A7) antibody, overnight at 4 C; CLU, LC3 and BAX detected by western blot; normal IgG as negative control. On the technique in general: In western blotting, separated proteins are transferred to a membrane and probed.

Protein sequences, listed by entry. Tags and fused reporters are not part of them. Residues count along the entry.
UniProt P10909, residues 23-449: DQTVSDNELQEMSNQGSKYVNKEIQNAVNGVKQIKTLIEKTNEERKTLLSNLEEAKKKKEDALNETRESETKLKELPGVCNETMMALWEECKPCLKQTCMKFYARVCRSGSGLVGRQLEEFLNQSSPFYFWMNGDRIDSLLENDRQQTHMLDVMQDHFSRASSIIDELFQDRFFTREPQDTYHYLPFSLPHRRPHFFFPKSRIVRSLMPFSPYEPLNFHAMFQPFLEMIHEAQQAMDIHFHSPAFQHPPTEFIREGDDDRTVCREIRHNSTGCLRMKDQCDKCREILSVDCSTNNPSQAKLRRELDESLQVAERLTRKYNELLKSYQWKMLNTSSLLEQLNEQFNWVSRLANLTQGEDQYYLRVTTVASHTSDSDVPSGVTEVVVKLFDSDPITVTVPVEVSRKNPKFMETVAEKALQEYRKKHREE
UniProt Q07812: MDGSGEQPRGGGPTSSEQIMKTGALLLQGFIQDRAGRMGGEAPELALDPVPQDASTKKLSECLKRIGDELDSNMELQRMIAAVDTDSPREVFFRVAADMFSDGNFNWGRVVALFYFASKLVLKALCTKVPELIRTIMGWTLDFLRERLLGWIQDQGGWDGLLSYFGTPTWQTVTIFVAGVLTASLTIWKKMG

Assay [2] addresses CLU (clusterin), wild type, stably overexpressed in FaDu cells (UniProt P10909). As to the kind of experiment: co-IP; lysate of FaDu-CLU cells expressing wild-type or mLIR CLU, with/without cisplatin, in combination with BAX chelator (50 nM; 3 h); anti-CLU antibody on Dynabeads Protein A; CLU, LC3 and BAX detected by western blot.

Results are given in words; binding and its absence hold for the method and conditions named. In cells and extracts the contact can be indirect. Some entries that bind do so weakly or less than the wild type.

On to “BAX (conformation-altered BAX, detected by antibody clone 6A7) (from UniProt Q07812 1-192)”, for which the binding entry in assay [1] and in assay [2] was “binds” each time.

The values are drawn from publication PMC11210931.
